Source: article PMC8121366, “Crystal and solution structures reveal oligomerization of individual capsid homology domains of Drosophila Arc” (PLoS ONE, 2021)
These are yes or no findings as the source states them, for the method shown. Some results given as binding are weak or reduced against the parent protein; the word gives no strength. Values belong to the binder of their own block, whether it stands above or below them.

How the values were obtained:
[1] = molecular target: T1, Drosophila Arc2 N-lobe (Drosophila) (UniProt Q7JV70); assay: condition: 0.5 mM dArc N-lobe in the cell; peptide in the syringe 10-fold higher; ITC; Arc N-lobe in the cell (0.5 mM dArc N-lobes, 0.25 mM hArc N-lobe), peptide in the syringe 10-fold higher; TBS; +25°C; one-site binding model; both purified
T1 sequence: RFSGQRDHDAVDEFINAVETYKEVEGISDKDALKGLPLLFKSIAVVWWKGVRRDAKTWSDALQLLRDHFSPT

[2] = molecular target: Drosophila Arc2 C-lobe (Drosophila) (UniProt Q7JV70); assay: crystal structure; sitting-drop vapor diffusion at +20°C; oligomeric states from crystal symmetry with PISA; both purified

binding [1]: no binding
Binder: RIPSYRYR (N-terminal acetylation; C-terminal amidation) [stargazin peptide]

binding [2]: binds
B1: Drosophila Arc2 C-lobe (domain or fragment)
chain: KPSYQIYMEIFETKQSYDEVIDSFICKQRALLAKLPEGRHDEETELDFIYGLMQPKYRESIPRHEVKTFRELLDRGRTVERTRH
notes: Arc2 (dArc2) of Drosophila, isolated C-lobe; monomeric mass 10 kDa; Dimer in the crystal and in solution; also called dArc2-CL; source: E. coli BL21(DE3), purified (Ni-NTA, TEV cleavage, second Ni-NTA, amylose resin, Superdex S200); not shown: His tag, N-terminal, cleaved; MBP, N-terminal, cleaved
